{
  "source": "paper PMC8406312",
  "about": "“Reovirus Nonstructural Protein σNS Recruits Viral RNA to Replication Organelles” (mBio, 2021)",
  "binders": {"B1": {"name": "reovirus nonstructural protein μNS (protein, UniProt P12419 1-721)", "chain": "MASFKGFSANTVPVSKAKRDISSLAATPGLRSQSFTPSVDMSQSREFLTKAIEQGSMSIPYQHVNVPKVDRKVVSLVVRPFSSGAFSISGVISPAHAYLLECLPQLEQAMAFVASPESFQASDVAKRFAIKPGMSLQDAITAFINFVSAMLKMTVTRQNFDVIVAEIERLASTSVSVRTEEAKVADEELMLFGLDHRGPQLVDVSDAKGIMKAADIQTTHDVHLAPGVGNIDPEIYNEGRFMFMQHKPLAADQSYFTLETADYFKIYPTYDEHDGRMADQKQSGLILCTKDEVLAEQTIFKLDAPDDKTVHLLDRDDDHVVARFTKVFIEDVAPGHHAAQRSGQRSVLDDLYANTQVISITSAALKWVVKHGVSDGIVNRKNVKVCVGFDPLYTLSTHNGVSLCALLMDEKLSVLNSACRMTLRSLMKTGRDVDAHRAFQRVLSQGYTSLMCYYHPSRKLAYGEVLFLERSNDVTDGIKLQLDASRQCHECPVLQQKVVELEKQIIMQKSIQSDPTPVALQPLLSQLRELSSEVTRLQMELSRAQSLNAQLEADVKSAQSCSLDMYLRHHTCINGHAKEDELLDAVRVAPDVRREIMEKRSEVRQGWCERISKEAAAKCQTVIDDLTLMNGKQAQEITELRDSAEKYEKQIAELVSTITQNQITYQQELQALVAKNVELDALNQRQAKSLRITPSLLSATPIDSVDDVADLIDFSVPTDEL"}},
  "biological_target": "reovirus nonstructural protein σNS, wild type (mammalian orthoreovirus strain T3D) (UniProt P03526)",
  "assay": "co-IP; HEK293T cotransfected with σNS and μNS plasmids, 24 h; lysed in co-IP buffer (20 mM Tris pH 7.5, 137 mM NaCl, 2 mM EDTA, 0.1% NP-40 substitute) at 4°C; σNS precipitated with σNS-specific monoclonal antibody 3E10 on protein G Dynabeads, 4°C, 4 h; immunoblot with μNS antiserum",
  "note": "Results are given in words; binding and its absence hold for the method and conditions named. Binding seen in cells or lysates may run through a third protein. Some binding calls cover weakened binding; strength is not graded here.",
  "data": [
    {"binder": "B1", "values": [
      {"measurement": "binding", "result": "binds"}
    ]}
  ]
}
